# Laboratory results: PubChem BioAssay AID493014 (National Center for Advancing Translational Sciences (NCATS), 2011)
# Among all 340,000 compounds or so, about 170 (0.05%) were called active. Inconclusive results, whose numbers are uncertain, are shown with a selection of clear calls. Calls come from the whole dose curve; as a rule, active = well fitted inhibition curve with a large enough effect in the signal ratio, with a control signal flat (not every such curve was filed as active); inconclusive = small, poorly fitted or top-dose-only effect, or effect the other way, or a change in a side signal; inactive = flat fitted curve, though single readings scatter; the % refers to the signal ratio. Where the call is inconclusive, the potency comes from a doubtful curve fit.
# Test: qHTS Assay to Find Inhibitors of Chronic Active B-Cell Receptor Signaling;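 for activity change, negative = inhibition: plate controls were basal doxycycline-induced cells for no effect and cells given 10 µM MG132 for full effect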
# Conditions: ABC-DLBCL IkBa-CBG/CBR reporter, luminescence ratio (green luciferase fused to IkBa over red control in TMD8 lymphoma cells), 4 h; activity change, negative = inhibition: at 46.1 µM (top of the series)
# Method in brief: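 Compounds up to 46 uM were incubated four hours with TMD8 cells whose green CBG68 luciferase is fused to IkappaBalpha; red CBR luminescence normalised the signal, and concentration-effect curves were fitted to fusion, red and ratio data.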
# Potency is the fitted concentration of half-maximal effect.
Compound,"activity change, negative = inhibition",Potency
CCn1c(C)c2c([n+]1CC)CC(C)(C)CC2=O,inconclusive: 0.292%,–
Cc1cccc2c(=O)c(C(=O)NCCc3ccccc3)c[nH]c12,inconclusive: -5.04%,–
COc1ccccc1Nc1cc(C)nc(Nc2ccccc2OC)n1,–,"inconclusive: 23.1 µM [falling, partial curve]"
CN(C)S(=O)(=O)c1ccc(C(=O)NCCS(=O)(=O)N2CCN(c3ccc(F)cc3)CC2)cc1,inconclusive: -3.41%,–
CCN(C(=O)COC(=O)C1CCN(S(=O)(=O)c2c(Cl)cccc2Cl)CC1)C1CCCCC1,inactive,–
CC(=O)Nc1ccccc1OCc1nnc(-c2cccs2)o1,inconclusive: 0.458%,–
CCN(CC(=O)Nc1c(F)cccc1F)C(=O)CCc1nc2cc(S(=O)(=O)N(C)C)ccc2n1CC,inconclusive: -2.14%,–
CNC1=C(N(C(C)=O)c2ccc(Br)cc2)C(=O)c2ccccc2C1=O,inconclusive: -0.0552%,–
CCN(CC)C(=S)SCC(=O)Nc1nc(=O)c2ccccc2s1,–,"inconclusive: 20.6 µM [falling, partial curve]"
Cc1ccc(N(CC(=O)Nc2ccc3c(c2)OCCO3)S(=O)(=O)c2c(C)noc2C)cc1,inconclusive: 9.23%,–
Cc1ccc2cc(CN(C(=O)c3cccs3)c3ccccc3)c(=O)[nH]c2c1,inactive,–
COCCNc1nc(-c2ccccc2)nc2c1oc1ccccc12,–,"inconclusive: 10 µM [rising, partial curve, poor fit]"
CCOC(=O)c1cnn(-c2ccccc2)c1NC(=O)C(F)(F)C(F)(F)C(F)(F)F,inactive,–
COc1cc(CC(=O)Nc2nccs2)cc(OC)c1OC,inactive,–
Cc1ccc(NC(=O)c2cnc(SCC(=O)NCC3CCCO3)n(C)c2=O)cc1C (stereo not drawn),–,"inconclusive: 20.6 µM [falling, single point]"
COc1cc(OC)cc(C(=O)N(Cc2nc(-c3cccc(C)c3)no2)C(C)C)c1,–,"inconclusive: 13 µM [falling, partial curve, poor fit]"
COc1ccc(N2C(=O)C3CCCN3C2c2ccccc2)cc1 (stereo not drawn),inconclusive: 9.8%,–
O=CN1CCCN(Cc2nc(-c3cccc(Cl)c3)no2)CC1,inconclusive: 5.71%,–
COc1cc(NC(=O)NC(C)c2c(-n3cccc3)sc3c2CCN(C)C3)cc(OC)c1 (stereo not drawn),inconclusive: -1.66%,–
C=CCc1cccc(CNc2nc3ccccc3n2CC)c1O,inconclusive: 4.04%,–
Cc1ccc(C(O)c2nccn2C)o1 (stereo not drawn),inactive,–
NNC(=O)c1cc(C2CC2)nc2ccc(Br)cc12,inconclusive: -5.03%,–
CCc1ccc(/C=C2/SC(=S)N(CCC(=O)Nc3cccnc3)C2=O)cc1,–,"inconclusive: 25.1 µM [falling, single point]"

# No new results follow: 6 of the compounds above.
Compound,"activity change, negative = inhibition",Potency
COc1cc(CC(=O)Nc2nccs2)cc(OC)c1OC,inactive,–
Cc1ccc(NC(=O)c2cnc(SCC(=O)NCC3CCCO3)n(C)c2=O)cc1C (stereo not drawn),–,"inconclusive: 20.6 µM [falling, single point]"
COc1cc(OC)cc(C(=O)N(Cc2nc(-c3cccc(C)c3)no2)C(C)C)c1,–,"inconclusive: 13 µM [falling, partial curve, poor fit]"
COc1ccc(N2C(=O)C3CCCN3C2c2ccccc2)cc1 (stereo not drawn),inconclusive: 9.8%,–
O=CN1CCCN(Cc2nc(-c3cccc(Cl)c3)no2)CC1,inconclusive: 5.71%,–
COc1cc(NC(=O)NC(C)c2c(-n3cccc3)sc3c2CCN(C)C3)cc(OC)c1 (stereo not drawn),inconclusive: -1.66%,–
